No constants are given. Whether binding was seen depends on the method and setting. Binding can be weak; no strength is given.
Key:
[1] = target: Dbs DH–PH domain (UniProt Q64096); assay: SEC; co-migration on analytical Superdex75 10/300; DH–PH or DH constructs mixed with GTPases 1:2, dialysed into EDTA- or MgCl2-containing buffer overnight at 4 °C; both purified
[2] = target: Dbs DH–PH domain (UniProt Q64096); assay: pull-down; Ni-NTA Sepharose; His-tagged DH–PH or DH constructs as bait, untagged GTPases as prey, 1:2 molar ratio; dialysed into 25 mM Tris-HCl pH 7.5, 150 mM NaCl, 2 mM DTT with 1 mM EDTA or 10 mM MgCl2; 2 h at 4 °C; Coomassie SDS-PAGE; both purified

Protein sequences, listed by entry. Tags and fused reporters are not part of them. Lines headed by an entry give the natural chain unless they say otherwise; changes in a name come on top.
UniProt Q64096: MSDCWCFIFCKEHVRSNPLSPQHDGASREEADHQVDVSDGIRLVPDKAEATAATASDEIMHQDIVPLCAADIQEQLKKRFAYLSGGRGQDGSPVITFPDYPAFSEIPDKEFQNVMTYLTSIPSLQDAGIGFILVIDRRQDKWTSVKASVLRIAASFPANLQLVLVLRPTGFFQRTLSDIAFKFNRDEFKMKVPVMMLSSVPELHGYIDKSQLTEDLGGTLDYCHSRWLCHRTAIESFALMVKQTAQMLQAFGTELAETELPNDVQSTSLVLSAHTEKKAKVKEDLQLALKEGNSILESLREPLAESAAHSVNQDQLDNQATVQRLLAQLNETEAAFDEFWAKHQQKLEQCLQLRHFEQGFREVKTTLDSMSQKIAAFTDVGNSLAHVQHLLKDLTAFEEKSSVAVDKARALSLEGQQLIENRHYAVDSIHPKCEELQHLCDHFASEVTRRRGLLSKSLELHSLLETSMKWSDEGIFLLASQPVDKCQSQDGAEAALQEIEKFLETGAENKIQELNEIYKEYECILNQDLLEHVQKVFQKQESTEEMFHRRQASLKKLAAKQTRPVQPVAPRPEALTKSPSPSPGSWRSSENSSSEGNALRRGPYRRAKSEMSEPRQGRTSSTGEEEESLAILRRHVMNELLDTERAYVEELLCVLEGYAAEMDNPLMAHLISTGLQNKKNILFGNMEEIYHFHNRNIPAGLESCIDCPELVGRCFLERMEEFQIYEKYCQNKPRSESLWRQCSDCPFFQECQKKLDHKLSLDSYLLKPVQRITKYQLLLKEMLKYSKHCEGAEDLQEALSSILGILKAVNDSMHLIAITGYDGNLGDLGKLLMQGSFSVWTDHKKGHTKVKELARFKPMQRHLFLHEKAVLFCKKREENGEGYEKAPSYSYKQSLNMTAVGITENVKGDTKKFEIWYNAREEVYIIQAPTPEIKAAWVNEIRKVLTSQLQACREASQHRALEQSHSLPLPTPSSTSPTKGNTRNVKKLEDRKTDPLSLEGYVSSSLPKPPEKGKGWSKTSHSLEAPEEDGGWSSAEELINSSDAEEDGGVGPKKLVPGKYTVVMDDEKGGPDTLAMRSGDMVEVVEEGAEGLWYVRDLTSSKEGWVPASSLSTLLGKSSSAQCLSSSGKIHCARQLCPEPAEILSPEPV
UniProt P60953: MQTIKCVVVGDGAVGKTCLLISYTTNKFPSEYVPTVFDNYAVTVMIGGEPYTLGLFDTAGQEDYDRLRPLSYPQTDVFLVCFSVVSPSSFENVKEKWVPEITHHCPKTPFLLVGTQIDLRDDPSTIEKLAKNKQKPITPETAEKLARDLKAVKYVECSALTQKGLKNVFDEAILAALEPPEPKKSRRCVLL
UniProt P61586: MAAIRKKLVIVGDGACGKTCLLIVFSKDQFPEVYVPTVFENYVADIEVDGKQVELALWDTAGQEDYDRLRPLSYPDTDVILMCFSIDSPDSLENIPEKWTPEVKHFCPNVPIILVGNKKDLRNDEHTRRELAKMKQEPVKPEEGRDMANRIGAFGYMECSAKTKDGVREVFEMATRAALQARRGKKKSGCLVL

Substance | binding [1] | binding [2]
Cdc42 (from UniProt P60953 1-191) (enzyme) | binds | binds
RhoA (from UniProt P61586 1-193) (enzyme) | binds | binds

Reference: PMC5727386
